Laboratory results from US20260217861A1.
Results are given in words; binding and its absence hold for the method and conditions named. Some entries that bind do so weakly or less than the wild type.

By UniProt entry, the sequences of proteins in these tests, tags left out. Where a name states a change or a piece, a line headed by the entry shows the natural chain unless it says otherwise.
UniProt P02671: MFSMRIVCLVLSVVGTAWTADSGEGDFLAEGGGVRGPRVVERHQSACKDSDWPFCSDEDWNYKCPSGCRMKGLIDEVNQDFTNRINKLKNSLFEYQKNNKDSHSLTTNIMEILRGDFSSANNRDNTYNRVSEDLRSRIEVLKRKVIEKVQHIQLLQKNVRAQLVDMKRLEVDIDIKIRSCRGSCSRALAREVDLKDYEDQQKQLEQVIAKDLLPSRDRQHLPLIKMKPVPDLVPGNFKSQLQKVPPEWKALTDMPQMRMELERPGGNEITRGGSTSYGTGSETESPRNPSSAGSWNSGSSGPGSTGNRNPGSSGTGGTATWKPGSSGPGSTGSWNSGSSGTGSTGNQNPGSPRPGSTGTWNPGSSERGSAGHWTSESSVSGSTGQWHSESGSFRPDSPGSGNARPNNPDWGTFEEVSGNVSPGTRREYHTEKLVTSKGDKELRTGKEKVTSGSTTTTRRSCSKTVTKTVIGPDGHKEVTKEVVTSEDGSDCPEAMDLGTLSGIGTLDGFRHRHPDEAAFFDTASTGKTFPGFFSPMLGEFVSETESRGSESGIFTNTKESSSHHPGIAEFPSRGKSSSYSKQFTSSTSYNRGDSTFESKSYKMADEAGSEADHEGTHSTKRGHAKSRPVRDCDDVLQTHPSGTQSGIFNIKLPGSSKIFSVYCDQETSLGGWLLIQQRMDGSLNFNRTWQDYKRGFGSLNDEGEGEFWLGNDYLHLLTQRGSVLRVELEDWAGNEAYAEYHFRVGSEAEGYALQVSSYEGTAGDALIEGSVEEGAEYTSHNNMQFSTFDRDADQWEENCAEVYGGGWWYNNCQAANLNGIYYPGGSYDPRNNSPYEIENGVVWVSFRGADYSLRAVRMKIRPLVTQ
UniProt P02675: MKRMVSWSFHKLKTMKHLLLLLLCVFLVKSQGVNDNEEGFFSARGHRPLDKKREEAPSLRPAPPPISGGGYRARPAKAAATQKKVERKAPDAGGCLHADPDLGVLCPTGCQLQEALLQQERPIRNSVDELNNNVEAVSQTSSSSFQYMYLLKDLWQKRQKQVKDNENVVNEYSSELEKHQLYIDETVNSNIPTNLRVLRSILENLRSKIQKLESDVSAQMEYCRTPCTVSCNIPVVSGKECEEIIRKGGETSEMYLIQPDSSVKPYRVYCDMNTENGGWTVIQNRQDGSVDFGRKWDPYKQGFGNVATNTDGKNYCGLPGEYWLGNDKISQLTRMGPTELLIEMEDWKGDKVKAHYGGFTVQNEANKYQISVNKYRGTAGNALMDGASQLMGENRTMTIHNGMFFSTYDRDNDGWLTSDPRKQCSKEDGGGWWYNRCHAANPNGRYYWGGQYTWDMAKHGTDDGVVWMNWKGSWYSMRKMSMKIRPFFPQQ
UniProt P02679: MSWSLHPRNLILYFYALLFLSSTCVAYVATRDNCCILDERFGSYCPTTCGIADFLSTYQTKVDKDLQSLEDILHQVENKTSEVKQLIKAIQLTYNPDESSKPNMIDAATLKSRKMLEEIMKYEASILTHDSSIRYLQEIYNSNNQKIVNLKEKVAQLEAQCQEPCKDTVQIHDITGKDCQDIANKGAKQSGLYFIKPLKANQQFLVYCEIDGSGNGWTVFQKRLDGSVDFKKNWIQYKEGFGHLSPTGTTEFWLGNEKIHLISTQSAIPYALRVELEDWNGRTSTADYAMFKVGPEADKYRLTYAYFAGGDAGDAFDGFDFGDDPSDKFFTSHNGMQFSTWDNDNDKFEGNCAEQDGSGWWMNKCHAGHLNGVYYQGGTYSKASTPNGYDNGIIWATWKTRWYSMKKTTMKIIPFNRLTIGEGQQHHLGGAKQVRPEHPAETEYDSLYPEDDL

Molecular target: fibrin polymerised from human fibrinogen (human) (UniProt P02671+P02675+P02679)
Assay: static fibrin polymerisation with rhGPV (20 µg/ml) stained with LUM/B AF647, confocal microscopy

binding: binds
B1: recombinant ectodomain of human GPV (rhGPV) (receptor)
chain: QPFPCPPACKCVFRDAAQCSGGDVARISALGLPTNLTHILLFGMGRGVLQSQSFSGMTVLQRLMISDSHISAVAPGTFSDLIKLKTLRLSRNKITHLPGALLDKMVLLEQLFLDHNALRGIDQNMFQKLVNLQELALNQNQLDFLPASLFTNLENLKLLDLSGNNLTHLPKGLLGAQAKLERLLLHSNRLVSLDSGLLNSLGALTELQFHRNHIRSIAPGAFDRLPNLSSLTLSRNHLAFLPSALFLHSHNLTLLTLFENPLAELPGVLFGEMGGLQELWLNRTQLRTLPAAAFRNLSRLRYLGVTLSPRLSALPQGAFQGLGELQVLALHSNGLTALPDGLLRGLGKLRQVSLRRNRLRALPRALFRNLSSLESVQLDHNQLETLPGDVFGALPRLTEVLLGHNSWRCDCGLGPFLGWLRQHLGLVGGEEPPRCAGPGAHAGLPLWALPGGDAECPGPRGPPPRPAADSSSEAPVHPALAPNSSEPWVWAQPVTTGKGQDHHHHHHHHHHH
